# Measurements reported in PubChem BioAssay AID1625 (Sanford-Burnham Center for Chemical Genomics, 2009).
# Hit rate of the full screen: of about 190,000 compounds, about 570 (0.3%) were called active. The inconclusive results got no clear call from the source; some entries with a clear call stand among them for comparison.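 Rule for the calls: active = z-score above 3 at 5 µM with at least 500 cells counted in the well; inconclusive = wells under 500 cells, flagged as cytotoxic or low count; inactive = the rest.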
# Test: up-regulation of insulin promoter-GFP reporter – imaging, high-content screening, mouse beta cells (AID 1625)
# Details: MIN6 insulin promoter-GFP reporter, at 5 µM, hits give high values
row,SMILES,z-score
1,C=CCN(CC=C)CCOc1ccccc1,inconclusive: -4.1
2,Fc1ccccc1NC(=S)Nc1ccc(Br)cc1,inactive: -0.74
3,CCn1c(CNC(=O)COc2ccc(C(C)C)cc2)nnc1SCC(=O)Nc1ccccc1C(C)C,inconclusive: -0.76
4,CCN(CC)c1ccc(C(=O)N/N=C/c2ccc(N3CCOCC3)cc2)cc1,active: 3.38
5,CCOc1ccc(NC(=O)C2=C(C)C(=O)OC23CCC(C)CC3)cc1 (stereo not given),inconclusive: -2.97
6,CN1CCN(Cc2nc(N)nc(Nc3ccc4c(c3)OCCO4)n2)CC1,active: 4.73
7,CCN(CC)c1ccc(C(=O)n2cnc3ccccc32)cc1,inactive: -1.12
8,Cc1ccc(C2(C(F)(F)F)N=C3Sc4cc(C)ccc4N3C(=O)N2)cc1 (stereo not given),active: 3.48
9,COCCNS(=O)(=O)c1ccc(SC)cc1,inconclusive: -2.2
10,Cc1cc(N2CCN(C/C=C/c3ccccc3)CC2)n2ncnc2n1,inconclusive: -1.85
11,O=C(C1=C(c2ccccc2)C(=O)c2ccccc2C1=O)c1ccccc1,inconclusive: -3.02
12,O=C(CCN1C(=O)/C(=C/c2cccs2)SC1=S)NNC(=O)c1cccc(O)c1,active: 3.43
13,CC1CC(C)(C)Nc2ccc(N=O)cc21 (stereo not given),active: 4.12
14,Cc1cc(C(=O)CSc2nc3ccccc3c(=O)n2C)c(C)n1Cc1ccc2c(c1)OCO2,inconclusive: -5.11
15,COc1ccc(/C=C/C(=O)c2ccc[nH]2)cc1OC,inconclusive: -1.38
16,Cc1ccc2oc(=O)n(CC(=O)OC(C)C)c2c1,inactive: 0.15
17,Cn1nc(-c2ccc(Cl)cc2)c2cc(C(=O)N3CCN(C(=O)c4ccco4)CC3)sc21,inconclusive: -2.66
18,CN(C)CCCN1C(=O)c2cccc3c([N+](=O)[O-])ccc(c23)C1=O,inconclusive: 14.9
19,Cc1cc(C)nc(SCSc2nc(C)cc(C)n2)n1,active: 4.55
20,CCN(CC)CCCNC1=C(Cl)C(=O)c2ccccc2C1=O,inconclusive: -5.61
21,COc1cccc(/C=N/NC(=O)CNC(=O)c2ccc(S(=O)(=O)N3CCCC3)cc2)c1OC,inactive: 0.66
22,NC[C@@H]1O[C@H](C23CC4CC(CC(C4)C2)C3)Cc2c1ccc(O)c2O,inconclusive: -3.02
23,CCN(CC)c1ccc(-c2nn3c(-c4ccccc4OC)nnc3s2)cc1,inconclusive: 0.23

row,SMILES,z-score
1,Cc1cc(C)cc(NC(=O)/C=C/c2ccc([N+](=O)[O-])s2)c1,active: 5.99
2,S=c1nc(-c2ccco2)[nH][nH]1,inconclusive: -3.64
3,COc1ccc(Cn2nnnc2C(c2cc3cc(C)ccc3[nH]c2=O)N2CCOCC2)cc1 (stereo not given),inactive: 0.06
4,Cc1ccc(-c2nn(-c3ccccc3)cc2/C=N/NC(=O)c2ccc(Br)o2)cc1,inconclusive: -4.44
5,CC(C)OC(=O)CC12CN3CC(CC(=O)OC(C)C)(CN(C1)C(=O)c1ccccc1C3=O)C2=O,inactive: -0.24
6,O=C(CN1CCN(c2ccc(F)cc2)CC1)c1ccc2c(c1)OCO2,inactive: 0.48
7,COc1ccc(-c2cc(C(F)(F)F)n3nc(C(=O)NCc4ccco4)c(Cl)c3n2)cc1,inactive: 1.18
8,Nc1ccc2c(c1)C(=O)C(=O)c1ccccc1-2,inconclusive: -1.54
9,COc1ccccc1-c1nnc(SCC(=O)c2ccc(C3CCCCC3)cc2)n1Cc1ccco1,inactive: -0.4
10,Cc1ccc(C(=O)COC(=O)C2C3C=CC(C3)C2C(=O)OCC(=O)c2ccc(C)c(C)c2)cc1C (stereo not given),inconclusive: -1.14
11,NC1=NC[C@H](c2ccccc2)N1CCCCC1CCCCC1,inconclusive: -3.05
12,COc1ccc(CNC(=O)c2cc3c(C)nc4ccccc4c3o2)c(OC)c1,inconclusive: -8.6
13,O=C1C(Cl)=C(N2CCOCC2)C(=O)N1CCc1ccccc1,inconclusive: -1.37
14,O=S(=O)(Nc1cc(Sc2cccc3cccnc23)c(O)c2ccccc12)c1ccc(F)cc1,inconclusive: -0.63
15,CCOC(=O)c1c(NC(=O)C2c3ccccc3Oc3ccccc32)sc(C(=O)N(CC)CC)c1C,inconclusive: -1.91
16,COc1ccc(C(=O)/C=C/C(=O)N(CC(=O)NC2CCCCC2)Cc2ccc(F)cc2)c(O)c1,inconclusive: -3.75
17,COC(=O)C1=NN[C@H](C(=O)OC(C)(C)C)[C@H]1c1ccccc1,inconclusive: -2.96
18,Fc1ccc(C2CC(c3ccco3)=NN2c2ccccc2)cc1 (stereo not given),active: 3.51
19,COC(=O)N/N=C/c1cc(Br)ccc1O,inactive: 0.3
20,CCOc1ccc(S(=O)(=O)Nc2cccc(N(C)S(C)(=O)=O)c2)cc1,inconclusive: -0.72
21,CN(C(=O)COc1ccccc1C(=O)NCCOc1ccccc1)c1ccccc1,inconclusive: -5.97
22,O=S(=O)(NCc1ccncc1)c1ccc(S(=O)(=O)NCC2CCCO2)cc1 (stereo not given),inconclusive: -1.94
23,CN(NS(=O)(=O)c1ccc(Cl)cc1)c1ncc(C(F)(F)F)cc1Cl,inconclusive: -2.03

row,SMILES,z-score
1,Cn1nnnc1SCC(=O)N1CCN(C(=O)c2ccco2)CC1,inactive: 0.63
2,CN1/C(=C\C(=S)NC(=O)c2ccccc2Cl)C(C)(C)c2ccccc21,inconclusive: -1.37
3,O=C(N/N=C/c1ccco1)c1ccc(OCc2ccccc2)cc1,inactive: -0.17
4,CCCC(C)C(=O)OCC(=O)Nc1ccc(Br)cc1 (stereo not given),inactive: -0.23
5,CCN1/C(=C/c2ccc3cc(C)ccc3[n+]2CC)Sc2cc(C)ccc21,inconclusive: 9.87
6,COc1ccc(C(=O)c2c(C)oc3ccc(O)c(CN4CCOCC4)c23)cc1,inconclusive: 0.07
7,CC(=O)c1cccc(NS(=O)(=O)c2ccc(N/C=C/C(=O)c3ccc(F)cc3)cc2)c1,inconclusive: -5.2
8,CC1(C)Cc2c(c(-c3ccccc3)[nH]c(=O)c2C#N)CO1,active: 3.41
9,Oc1c(CN2CCN(c3ccccc3)CC2)cc(Br)c2cccnc12,inconclusive: -4.23
10,CCCn1c(NC(=O)c2ccc(Cl)c(S(=O)(=O)N3CCCC3)c2)nc2ccccc21,inconclusive: -6.43
11,O=C(Cn1ncc(Cl)c(Cl)c1=O)NCC1CCCCC1,inconclusive: -0.74
12,O=C(c1ccccc1O)N1N=C(c2ccccc2)CC1(O)C(F)(F)F (stereo not given),inactive: -0.34
13,CN(CC(=O)NCCc1ccccc1)S(=O)(=O)c1cccc2nsnc12,inconclusive: -5.01
14,COc1ccc(-c2nn(-c3ccccc3)cc2/C=N/NC(=O)c2ccc(Br)o2)cc1,inconclusive: -3.98
15,COc1cc(NS(=O)(=O)c2ccc(C)cc2)c2ncccc2c1,inconclusive: -1.62
16,COCCNc1nc2c(c(=O)n(C)c(=O)n2C)n1Cc1cccc(C(F)(F)F)c1,inconclusive: -6.19
17,CCOC(=O)/C(=C/C=C1\Sc2cc(OCC)c(OCC)cc2N1CC)C(C)=O,active: 16.2
18,CCCCCCCCn1c2c(c(=N)c3ccccc31)CCC2,inconclusive: -6.85
19,COCc1cc(C)nc(Nc2ccccc2C)c1C#N,active: 3.32
20,COc1ccccc1OCCN(C#N)c1nc(N(C)C)nc(N(C)C)n1,inactive: 0.29
21,Cc1cc(C2=NNC(=NC3CC3)SC2)c(C)n1-c1c(C)n(C)n(-c2ccccc2)c1=O,inactive: 0.14
22,CCN1CCN(c2cc(-c3ccccc3)nc3cc(-c4cccc(F)c4)nn23)CC1,inconclusive: -1.81
23,O=C(CNC(=O)C1CCCCC1)Nc1cc(Cl)ccc1Cl,inconclusive: -4.69

# Structures above with a furan ring, fused or not (eleven):
row,SMILES,z-score
17,Cn1nc(-c2ccc(Cl)cc2)c2cc(C(=O)N3CCN(C(=O)c4ccco4)CC3)sc21,inconclusive: -2.66
2,S=c1nc(-c2ccco2)[nH][nH]1,inconclusive: -3.64
4,Cc1ccc(-c2nn(-c3ccccc3)cc2/C=N/NC(=O)c2ccc(Br)o2)cc1,inconclusive: -4.44
7,COc1ccc(-c2cc(C(F)(F)F)n3nc(C(=O)NCc4ccco4)c(Cl)c3n2)cc1,inactive: 1.18
9,COc1ccccc1-c1nnc(SCC(=O)c2ccc(C3CCCCC3)cc2)n1Cc1ccco1,inactive: -0.4
12,COc1ccc(CNC(=O)c2cc3c(C)nc4ccccc4c3o2)c(OC)c1,inconclusive: -8.6
18,Fc1ccc(C2CC(c3ccco3)=NN2c2ccccc2)cc1 (stereo not given),active: 3.51
1,Cn1nnnc1SCC(=O)N1CCN(C(=O)c2ccco2)CC1,inactive: 0.63
3,O=C(N/N=C/c1ccco1)c1ccc(OCc2ccccc2)cc1,inactive: -0.17
6,COc1ccc(C(=O)c2c(C)oc3ccc(O)c(CN4CCOCC4)c23)cc1,inconclusive: 0.07
14,COc1ccc(-c2nn(-c3ccccc3)cc2/C=N/NC(=O)c2ccc(Br)o2)cc1,inconclusive: -3.98

# The listing continues.

row,SMILES,z-score
1,CC1=NNC(=O)C1CCC(=O)N/N=C/c1ccc(C)cc1 (stereo not given),active: 3.3
2,Cc1ccc(-n2c(C)cc(C(=O)COC(=O)c3c(C)noc3C)c2C)cc1,inconclusive: -1.84
3,CC(=O)N1CCN(Cc2nc3cc(NC(=O)c4ccccc4)ccc3n2C)CC1,active: 3.37
4,Cc1ccc(C2CC(=O)NC(SCc3ccccc3)=C2C#N)o1 (stereo not given),active: 3.43
5,COc1cccc(OCCOCCOc2ccc(C)cc2[N+](=O)[O-])c1,inconclusive: -1.2
6,Cc1ccc(-c2cn(-c3ccc(OC(F)F)cc3)c3[n+]2CCCCC3)cc1,inconclusive: -4.3
7,c1ccc(-c2nnc(-c3ccccn3)nc2NC2CCCCC2)cc1,inconclusive: -8.19
8,CC(=S)/C=C1\Sc2ccccc2N1C,inconclusive: -2
9,CCOC(=O)c1cnc(-n2nc(C)cc2C)nc1Nc1ccc(N(C)C)cc1,inconclusive: -2.43
10,O=C(NCc1n[nH]c(=S)n1-c1ccccc1)c1cccs1,inactive: 0.09
11,CCOC(=O)c1c(CSc2nc(C)cc(C)c2C#N)n(C)c2cc(Br)c(OC(C)=O)cc12,inconclusive: -1.46
12,CC(C)n1c(-c2ccco2)csc1=Nc1cccnc1,inconclusive: -0.1
13,COc1ccc(C[C@H]2CN3C(=NC[C@@H]3Cc3ccc(O)cc3)N2C[C@H](C)NC(=O)c2ccc(C)c(Br)c2)cc1,inconclusive: -0.7
14,COc1ccc(NC(=O)C2Cc3ccccc3CN2C(=O)c2ccccc2)cn1 (stereo not given),inconclusive: 0.03
15,COc1cccc(C2NC(=S)NC(C)=C2C(=O)c2ccccc2)c1OC (stereo not given),inactive: 0.56
16,CCc1nnc(NC(=O)C(NS(=O)(=O)c2ccc3c(c2)OCCO3)C(C)C)s1 (stereo not given),inactive: 0.13
17,CCc1cc[n+](C2=C([O-])c3ccccc3C(=O)/C2=N\S(=O)(=O)c2cccs2)cc1,inactive: -0.94
18,CC(CCc1ccco1)NC(=O)c1cc2c(-c3ccccc3F)nn(C)c2s1 (stereo not given),inconclusive: -0.86
19,COc1cc(/C=C2/C(=O)N(c3ccc([N+](=O)[O-])cc3)N=C2N2CCOCC2)ccc1O,inactive: 0.25
20,Cc1ccccc1NC(=O)c1sc(Cl)nc1-c1ccccc1,inactive: 1.72
21,CC(C)n1c(NCc2cc(Cl)ccc2O)nc2ccccc21,inconclusive: -2.61

# Looked up above.
# Value for CC1(C)Cc2c(c(-c3ccccc3)[nH]c(=O)c2C#N)CO1 under z-score: active: 3.41
# Value for Cc1ccc(C(=O)COC(=O)C2C3C=CC(C3)C2C(=O)OCC(=O)c2ccc(C)c(C)c2)cc1C (stereo not given) under z-score: inconclusive: -1.14
